{
  "sequences": {"note": "Sequences of proteins named here, by UniProt entry; tags and fusion partners are left off. A change or cut given only in a name is not applied to a line headed by its entry.", "UniProt Q9NZ72": "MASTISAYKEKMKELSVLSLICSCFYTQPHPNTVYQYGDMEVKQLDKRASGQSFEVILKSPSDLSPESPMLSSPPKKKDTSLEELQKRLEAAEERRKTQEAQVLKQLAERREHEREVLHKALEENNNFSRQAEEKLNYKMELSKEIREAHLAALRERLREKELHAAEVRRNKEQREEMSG", "UniProt Q13395": "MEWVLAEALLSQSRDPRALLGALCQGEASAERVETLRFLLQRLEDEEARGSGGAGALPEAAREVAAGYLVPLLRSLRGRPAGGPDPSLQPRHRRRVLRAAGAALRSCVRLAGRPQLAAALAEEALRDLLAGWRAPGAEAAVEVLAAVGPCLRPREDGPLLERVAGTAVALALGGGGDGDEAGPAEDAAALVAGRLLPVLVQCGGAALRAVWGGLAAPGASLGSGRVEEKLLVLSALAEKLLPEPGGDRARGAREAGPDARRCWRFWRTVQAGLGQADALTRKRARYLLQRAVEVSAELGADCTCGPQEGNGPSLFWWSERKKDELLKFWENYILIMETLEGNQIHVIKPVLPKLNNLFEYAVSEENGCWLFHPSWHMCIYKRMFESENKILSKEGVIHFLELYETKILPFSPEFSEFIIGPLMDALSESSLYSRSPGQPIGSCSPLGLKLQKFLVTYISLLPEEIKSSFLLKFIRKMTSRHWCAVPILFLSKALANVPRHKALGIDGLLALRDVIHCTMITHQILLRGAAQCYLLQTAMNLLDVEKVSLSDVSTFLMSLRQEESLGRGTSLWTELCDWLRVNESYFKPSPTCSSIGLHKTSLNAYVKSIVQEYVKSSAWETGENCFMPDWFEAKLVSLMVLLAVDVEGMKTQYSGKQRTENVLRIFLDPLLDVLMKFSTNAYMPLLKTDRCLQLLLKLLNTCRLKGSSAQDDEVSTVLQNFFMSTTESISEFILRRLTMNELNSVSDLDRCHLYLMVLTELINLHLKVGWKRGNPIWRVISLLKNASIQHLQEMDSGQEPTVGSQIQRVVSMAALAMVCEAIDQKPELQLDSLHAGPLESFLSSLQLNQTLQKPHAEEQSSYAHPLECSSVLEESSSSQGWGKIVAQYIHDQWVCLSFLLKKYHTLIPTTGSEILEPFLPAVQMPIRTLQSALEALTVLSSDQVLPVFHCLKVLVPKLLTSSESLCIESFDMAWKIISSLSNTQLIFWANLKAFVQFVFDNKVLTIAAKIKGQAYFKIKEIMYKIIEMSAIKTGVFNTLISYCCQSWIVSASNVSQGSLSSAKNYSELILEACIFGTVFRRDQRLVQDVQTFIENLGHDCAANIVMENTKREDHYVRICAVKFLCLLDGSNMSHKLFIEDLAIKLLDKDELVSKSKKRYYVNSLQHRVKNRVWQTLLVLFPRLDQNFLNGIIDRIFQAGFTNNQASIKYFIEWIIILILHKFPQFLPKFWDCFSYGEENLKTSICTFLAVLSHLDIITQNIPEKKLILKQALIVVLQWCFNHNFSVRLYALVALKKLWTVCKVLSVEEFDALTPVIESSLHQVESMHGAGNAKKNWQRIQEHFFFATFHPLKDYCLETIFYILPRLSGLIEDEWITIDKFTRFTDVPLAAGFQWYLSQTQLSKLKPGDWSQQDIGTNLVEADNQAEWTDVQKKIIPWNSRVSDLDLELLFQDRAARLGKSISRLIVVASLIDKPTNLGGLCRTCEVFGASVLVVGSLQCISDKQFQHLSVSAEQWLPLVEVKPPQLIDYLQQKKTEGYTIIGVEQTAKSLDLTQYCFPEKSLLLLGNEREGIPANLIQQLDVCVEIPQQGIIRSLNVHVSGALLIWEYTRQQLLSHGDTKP", "UniProt Q9Y6A9": "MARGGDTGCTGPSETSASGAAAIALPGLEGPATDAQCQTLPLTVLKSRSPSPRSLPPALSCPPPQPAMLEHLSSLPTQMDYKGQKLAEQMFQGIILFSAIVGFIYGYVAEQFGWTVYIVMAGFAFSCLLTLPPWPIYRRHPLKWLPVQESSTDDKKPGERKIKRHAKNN", "UniProt Q92783": "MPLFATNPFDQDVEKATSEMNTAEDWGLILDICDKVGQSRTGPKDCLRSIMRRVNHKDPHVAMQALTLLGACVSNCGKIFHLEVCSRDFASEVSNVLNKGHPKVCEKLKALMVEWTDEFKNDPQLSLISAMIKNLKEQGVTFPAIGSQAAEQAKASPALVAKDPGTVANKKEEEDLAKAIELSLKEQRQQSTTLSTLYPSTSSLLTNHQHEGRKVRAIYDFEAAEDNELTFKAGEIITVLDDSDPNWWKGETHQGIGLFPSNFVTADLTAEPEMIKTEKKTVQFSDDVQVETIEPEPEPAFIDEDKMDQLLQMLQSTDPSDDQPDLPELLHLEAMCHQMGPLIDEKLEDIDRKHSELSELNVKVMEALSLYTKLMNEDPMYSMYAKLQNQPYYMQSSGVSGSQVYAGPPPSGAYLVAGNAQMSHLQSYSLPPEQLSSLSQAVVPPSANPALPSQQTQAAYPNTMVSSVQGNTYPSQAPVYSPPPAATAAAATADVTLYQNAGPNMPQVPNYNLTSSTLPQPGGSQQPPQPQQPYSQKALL", "UniProt Q86Y82": "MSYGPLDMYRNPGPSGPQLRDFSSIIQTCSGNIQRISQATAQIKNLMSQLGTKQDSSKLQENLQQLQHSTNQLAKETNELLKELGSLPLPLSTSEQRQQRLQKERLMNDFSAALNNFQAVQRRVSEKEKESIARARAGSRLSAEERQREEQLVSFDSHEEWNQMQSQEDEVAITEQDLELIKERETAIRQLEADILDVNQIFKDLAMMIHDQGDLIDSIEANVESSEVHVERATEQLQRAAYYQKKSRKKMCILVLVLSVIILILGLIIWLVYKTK", "UniProt Q15554": "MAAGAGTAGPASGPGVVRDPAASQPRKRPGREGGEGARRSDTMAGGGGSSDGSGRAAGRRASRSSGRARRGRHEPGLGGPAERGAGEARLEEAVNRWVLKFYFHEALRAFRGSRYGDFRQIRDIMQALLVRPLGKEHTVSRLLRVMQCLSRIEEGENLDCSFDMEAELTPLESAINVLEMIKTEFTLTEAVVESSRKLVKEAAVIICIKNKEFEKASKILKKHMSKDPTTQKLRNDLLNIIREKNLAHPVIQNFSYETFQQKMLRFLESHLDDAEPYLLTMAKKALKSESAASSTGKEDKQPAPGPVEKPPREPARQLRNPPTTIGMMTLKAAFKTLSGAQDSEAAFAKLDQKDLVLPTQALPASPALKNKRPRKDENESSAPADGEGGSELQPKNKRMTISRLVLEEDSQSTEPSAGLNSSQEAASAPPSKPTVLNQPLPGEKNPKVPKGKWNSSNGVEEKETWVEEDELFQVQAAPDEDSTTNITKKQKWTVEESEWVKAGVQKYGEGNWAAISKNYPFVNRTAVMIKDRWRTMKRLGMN", "UniProt Q9BZK7": "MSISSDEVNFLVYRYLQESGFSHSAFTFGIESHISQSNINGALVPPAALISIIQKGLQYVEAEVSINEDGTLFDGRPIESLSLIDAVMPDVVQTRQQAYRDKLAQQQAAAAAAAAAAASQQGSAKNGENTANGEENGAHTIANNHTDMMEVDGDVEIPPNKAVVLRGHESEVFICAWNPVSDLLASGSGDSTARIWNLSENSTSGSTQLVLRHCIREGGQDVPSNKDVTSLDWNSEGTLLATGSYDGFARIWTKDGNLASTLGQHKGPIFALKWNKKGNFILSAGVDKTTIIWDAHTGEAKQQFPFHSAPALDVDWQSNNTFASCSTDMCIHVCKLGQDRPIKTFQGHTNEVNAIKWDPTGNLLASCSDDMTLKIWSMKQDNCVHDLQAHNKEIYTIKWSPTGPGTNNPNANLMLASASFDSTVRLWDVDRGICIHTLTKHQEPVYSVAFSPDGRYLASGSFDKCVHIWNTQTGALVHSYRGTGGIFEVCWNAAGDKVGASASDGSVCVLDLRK", "UniProt Q00796": "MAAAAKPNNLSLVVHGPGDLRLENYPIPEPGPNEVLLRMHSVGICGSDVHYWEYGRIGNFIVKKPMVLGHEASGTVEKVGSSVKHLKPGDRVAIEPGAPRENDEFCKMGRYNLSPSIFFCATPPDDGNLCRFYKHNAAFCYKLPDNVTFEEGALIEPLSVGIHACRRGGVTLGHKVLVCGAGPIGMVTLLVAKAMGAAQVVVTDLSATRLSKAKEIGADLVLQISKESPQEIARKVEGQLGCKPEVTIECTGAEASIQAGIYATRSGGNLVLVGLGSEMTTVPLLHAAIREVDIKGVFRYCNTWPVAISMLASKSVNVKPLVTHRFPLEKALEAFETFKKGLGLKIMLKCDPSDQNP", "UniProt O95793": "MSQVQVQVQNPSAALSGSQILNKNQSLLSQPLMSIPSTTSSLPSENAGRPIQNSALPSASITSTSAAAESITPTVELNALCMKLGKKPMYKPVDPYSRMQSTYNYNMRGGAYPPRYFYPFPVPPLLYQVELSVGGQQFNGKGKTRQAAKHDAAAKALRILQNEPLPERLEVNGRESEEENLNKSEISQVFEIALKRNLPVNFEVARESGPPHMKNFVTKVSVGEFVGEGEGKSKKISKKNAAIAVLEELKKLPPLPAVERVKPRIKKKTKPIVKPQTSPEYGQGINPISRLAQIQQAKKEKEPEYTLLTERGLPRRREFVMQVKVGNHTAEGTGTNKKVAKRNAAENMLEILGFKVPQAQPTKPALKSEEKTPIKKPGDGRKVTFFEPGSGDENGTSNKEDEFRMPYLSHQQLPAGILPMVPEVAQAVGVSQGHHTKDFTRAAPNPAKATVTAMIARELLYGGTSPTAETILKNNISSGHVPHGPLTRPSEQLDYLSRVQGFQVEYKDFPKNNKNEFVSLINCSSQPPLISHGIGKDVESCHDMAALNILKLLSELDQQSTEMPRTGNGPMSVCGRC", "UniProt Q8IV04": "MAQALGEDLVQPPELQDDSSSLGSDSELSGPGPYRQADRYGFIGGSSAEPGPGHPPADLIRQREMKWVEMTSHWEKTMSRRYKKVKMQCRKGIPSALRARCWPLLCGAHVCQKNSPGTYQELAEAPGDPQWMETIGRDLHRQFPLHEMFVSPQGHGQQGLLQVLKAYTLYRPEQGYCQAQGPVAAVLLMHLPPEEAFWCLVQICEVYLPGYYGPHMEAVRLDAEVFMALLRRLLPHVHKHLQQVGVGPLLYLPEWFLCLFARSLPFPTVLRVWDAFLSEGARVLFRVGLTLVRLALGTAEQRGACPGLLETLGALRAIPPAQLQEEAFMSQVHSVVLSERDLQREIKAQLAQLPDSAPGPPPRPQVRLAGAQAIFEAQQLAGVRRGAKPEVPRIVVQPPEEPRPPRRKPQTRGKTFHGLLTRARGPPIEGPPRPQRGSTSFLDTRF", "UniProt O43815": "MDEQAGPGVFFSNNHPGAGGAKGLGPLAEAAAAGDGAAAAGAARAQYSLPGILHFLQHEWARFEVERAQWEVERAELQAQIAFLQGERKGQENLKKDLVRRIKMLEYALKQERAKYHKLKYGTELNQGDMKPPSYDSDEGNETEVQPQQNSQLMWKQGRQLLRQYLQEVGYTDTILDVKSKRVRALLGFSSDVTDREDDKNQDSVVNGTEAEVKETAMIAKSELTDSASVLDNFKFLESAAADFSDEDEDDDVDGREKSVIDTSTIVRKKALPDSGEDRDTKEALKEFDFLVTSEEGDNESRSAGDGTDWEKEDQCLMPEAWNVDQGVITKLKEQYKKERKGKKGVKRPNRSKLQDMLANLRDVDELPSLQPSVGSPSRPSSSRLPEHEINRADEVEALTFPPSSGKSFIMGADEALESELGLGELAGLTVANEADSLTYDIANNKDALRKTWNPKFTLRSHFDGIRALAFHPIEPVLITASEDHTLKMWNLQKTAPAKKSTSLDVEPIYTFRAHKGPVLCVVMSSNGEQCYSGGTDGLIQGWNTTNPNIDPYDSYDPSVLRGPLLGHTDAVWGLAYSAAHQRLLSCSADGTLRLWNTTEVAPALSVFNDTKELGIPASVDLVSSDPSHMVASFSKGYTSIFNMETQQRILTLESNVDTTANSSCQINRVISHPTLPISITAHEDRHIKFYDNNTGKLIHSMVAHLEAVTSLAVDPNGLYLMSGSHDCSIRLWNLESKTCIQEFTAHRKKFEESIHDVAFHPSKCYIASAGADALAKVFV", "UniProt P37108": "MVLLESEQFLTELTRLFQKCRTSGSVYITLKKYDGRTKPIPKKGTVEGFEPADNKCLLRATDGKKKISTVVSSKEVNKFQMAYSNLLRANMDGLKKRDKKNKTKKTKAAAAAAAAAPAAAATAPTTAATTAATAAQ", "UniProt O95630, whole entry": "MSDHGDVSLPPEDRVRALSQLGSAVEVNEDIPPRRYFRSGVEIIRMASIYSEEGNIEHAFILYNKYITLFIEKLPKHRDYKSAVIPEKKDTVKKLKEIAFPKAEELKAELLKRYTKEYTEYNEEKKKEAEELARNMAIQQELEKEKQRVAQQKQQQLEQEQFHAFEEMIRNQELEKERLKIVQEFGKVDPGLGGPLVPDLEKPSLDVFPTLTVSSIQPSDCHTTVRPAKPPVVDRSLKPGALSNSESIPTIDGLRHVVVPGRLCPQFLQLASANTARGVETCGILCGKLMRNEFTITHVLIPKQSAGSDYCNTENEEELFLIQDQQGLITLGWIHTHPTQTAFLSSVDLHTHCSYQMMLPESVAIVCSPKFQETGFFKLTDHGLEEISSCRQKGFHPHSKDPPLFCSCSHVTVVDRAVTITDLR"},
  "source": "the supplement of paper PMC7666118",
  "note": "The list shows a part of the results.",
  "data": [
    {"compound": "COc1ccc(Cn2ccc3cc(C)c(C(=O)NO)cc32)cc1", "assay": "dose-dependent thermal stabilisation call (2D-TPP, DLPTP, 10% FDR) (binary (1 = stabilised)); higher = stabilised by the compound", "conditions": "system: HL-60 intact cells; concentration range 0.04-10 µM", "procedure": "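2D thermal proteome profiling in intact HL-60 cells treated with BRD-3811 (0, 0.04, 0.29, 2, 10 uM) for 90 min at 37 C, then heated 3 min at one of 12 temperatures (42-63.9 C). Soluble protein was quantified by TMT10 MS. The value is the DLPTP call of the paper: dose-dependent thermal stabilisation over all temperatures at 10% FDR (F-test of a dose-response against a flat model); one experiment, one call per tested protein.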", "values": [
      {"target": "SYMPK (UniProt Q92797)", "dose-dependent thermal stabilisation call": "inactive: 0"},
      {"target": "SPN (UniProt P16150)", "dose-dependent thermal stabilisation call": "inactive: 0"},
      {"target": "TBC1D23 (UniProt Q9NUY8)", "dose-dependent thermal stabilisation call": "inactive: 0"},
      {"target": "SRM (UniProt P19623)", "dose-dependent thermal stabilisation call": "inactive: 0"},
      {"target": "TALDO1 (UniProt P37837)", "dose-dependent thermal stabilisation call": "inactive: 0"},
      {"target": "STMN3 (UniProt Q9NZ72)", "dose-dependent thermal stabilisation call": "inactive: 0"},
      {"target": "SUCLG1 (UniProt P53597)", "dose-dependent thermal stabilisation call": "inactive: 0"},
      {"target": "SSR3 (UniProt Q9UNL2)", "dose-dependent thermal stabilisation call": "inactive: 0"},
      {"target": "THEM4 (UniProt Q5T1C6)", "dose-dependent thermal stabilisation call": "active: 1"},
      {"target": "TARBP1 (UniProt Q13395)", "dose-dependent thermal stabilisation call": "inactive: 0"},
      {"target": "TAF5L (UniProt O75529)", "dose-dependent thermal stabilisation call": "inactive: 0"},
      {"target": "STT3B (UniProt Q8TCJ2)", "dose-dependent thermal stabilisation call": "inactive: 0"},
      {"target": "TCF3 (UniProt P15923)", "dose-dependent thermal stabilisation call": "inactive: 0"},
      {"target": "SPCS1 (UniProt Q9Y6A9)", "dose-dependent thermal stabilisation call": "inactive: 0"},
      {"target": "STAM (UniProt Q92783)", "dose-dependent thermal stabilisation call": "inactive: 0"},
      {"target": "TAPBP (UniProt O15533)", "dose-dependent thermal stabilisation call": "inactive: 0"},
      {"target": "STX12 (UniProt Q86Y82)", "dose-dependent thermal stabilisation call": "inactive: 0"},
      {"target": "TERF2 (UniProt Q15554)", "dose-dependent thermal stabilisation call": "inactive: 0"},
      {"target": "TBL1XR1 (UniProt Q9BZK7)", "dose-dependent thermal stabilisation call": "inactive: 0"},
      {"target": "SORD (UniProt Q00796)", "dose-dependent thermal stabilisation call": "inactive: 0"},
      {"target": "TBC1D13 (UniProt Q9NVG8)", "dose-dependent thermal stabilisation call": "inactive: 0"},
      {"target": "STARD3 (UniProt Q14849)", "dose-dependent thermal stabilisation call": "inactive: 0"},
      {"target": "SPATA5 (UniProt Q8NB90)", "dose-dependent thermal stabilisation call": "inactive: 0"},
      {"target": "SUGT1 (UniProt Q9Y2Z0)", "dose-dependent thermal stabilisation call": "inactive: 0"},
      {"target": "TDRD3 (UniProt Q9H7E2)", "dose-dependent thermal stabilisation call": "inactive: 0"},
      {"target": "STAT2 (UniProt P52630)", "dose-dependent thermal stabilisation call": "inactive: 0"},
      {"target": "TAF1C (UniProt Q15572)", "dose-dependent thermal stabilisation call": "inactive: 0"},
      {"target": "STRAP (UniProt Q9Y3F4)", "dose-dependent thermal stabilisation call": "inactive: 0"},
      {"target": "SYK (UniProt P43405)", "dose-dependent thermal stabilisation call": "inactive: 0"},
      {"target": "STAU1 (UniProt O95793)", "dose-dependent thermal stabilisation call": "inactive: 0"},
      {"target": "TAPBPL (UniProt Q9BX59)", "dose-dependent thermal stabilisation call": "inactive: 0"},
      {"target": "TBC1D10C (UniProt Q8IV04)", "dose-dependent thermal stabilisation call": "inactive: 0"},
      {"target": "STARD7 (UniProt Q9NQZ5)", "dose-dependent thermal stabilisation call": "inactive: 0"},
      {"target": "STRN (UniProt O43815)", "dose-dependent thermal stabilisation call": "inactive: 0"},
      {"target": "SRP14 (UniProt P37108)", "dose-dependent thermal stabilisation call": "inactive: 0"},
      {"target": "STAMBP (UniProt O95630)", "dose-dependent thermal stabilisation call": "inactive: 0"}
    ]}
  ]
}
